Results published in PubChem BioAssay AID1487 (National Center for Advancing Translational Sciences (NCATS), 2009).
In all, about 200,000 compounds went through this assay and about 25 (0.01%) were called active. Inconclusive results, whose numbers are uncertain, are shown with a selection of clear calls. Calls follow the shape of the dose curve; as a rule, active = well fitted inhibition curve with a large enough effect in the signal ratio, with a control signal flat (not every such curve was filed as active); inconclusive = small, poorly fitted or top-dose-only effect, or effect the other way, or a change in a side signal; inactive = flat fitted curve, though single readings scatter; the % refers to the signal ratio. A potency beside an inconclusive call is a rough fit, not a confirmed value.

Assay: qHTS Assay for Modulators of Lamin A Splicing
Conditions: HeLa LMNA splicing GFP/RFP minigene ratio, 48 h; ratio change, negative = inhibition: at 46.1 µM (top of the series) unless noted
In short: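 S3 HeLa stable clones carrying a lamin A-EGFP splicing minigene plus DsRed2 were seeded at 600 cells/well in Opti-MEM with 2% FBS, pin-dosed and incubated 48 h at 37°C. Acumen cytometry (488 nm) gave the GFP/RFP total-intensity ratio.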
% is scaled to controls: 0 for no effect and ±100 for the full control effect; potency is read from the fitted curve at half-maximal effect.

Structure (SMILES) | ratio change, negative = inhibition | Potency
COCCCn1c(=O)/c(=C\c2ccccc2OC(F)F)s/c1=C(/C#N)C(=O)N1CCOCC1 | inactive: -24.1% [at 46 µM] | –
COP(=O)(OC)c1nc(-c2ccccc2)oc1N1CCOCC1 | inactive: -3.92% | –
O=C(NC(=S)NCc1ccccc1)c1ccccc1 | inactive: -7.4% [at 46 µM] | –
COC(=O)c1ccc(NC(=S)NCCCN2CCCC2=O)cc1 | inconclusive: -17.2% [at 46 µM] | –
CC(C)(C)n1cnc2cc(NS(=O)(=O)c3ccc(Br)cc3)ccc21 | – | inconclusive: 35.5 µM [fluorescent, single point]
O=C(COCC(=O)Nc1cccc(C(F)(F)F)c1)Nc1cccc(C(F)(F)F)c1 | inconclusive: 10.5% | –
CCc1nnc(NC(=O)CSc2nc(SC)ns2)s1 | inconclusive: -17.5% [at 46 µM] | –
S=c1[nH]nc(-c2cccc(Cl)c2)n1CCN1CCCCC1 | inactive: -3.6% | –
CCN(CC)C1=C(Cl)C(=O)C(Cl)C12OCCO2 (centres undefined) | inconclusive: 13.2% [at 46 µM] | –
COc1ccc(C(C)=O)cc1CSc1nnc(C)s1 | inconclusive: 6.77% | –
Cc1nc(N/N=C/c2ccccn2)sc1C | – | inconclusive: 14.1 µM [fluorescent, partial curve]
CCc1cc(C(=O)N2CCCC(C(=O)c3cccc(OC(C)C)c3)C2)n(C)n1 (centres undefined) | inconclusive: 32.6% [at 46 µM] | –
Cc1cc(C)c(S(=O)(=O)N2CCN(C(=O)N(C)C)CC2)c(C)c1 | inconclusive: 12.1% [at 46 µM] | –
Brc1ccc2ncnc(Nc3ccc(N4CCOCC4)cc3)c2c1 | inconclusive: 14.3% | –
CC(NCc1cccc(S(=O)(=O)N(C)C)c1)c1ccc(F)cc1 (centres undefined) | inconclusive: 7.33% [at 46 µM] | –
COc1ccc(S(=O)(=O)NCCc2sc3nc(-c4ccc(C)cc4)nn3c2C)cc1C | inactive: -19.3% [at 46 µM] | –
CC1CC(=O)C(C2c3ccccc3CCN2C(=O)CCl)C(=O)C1 (centres undefined) | inactive: 10.8% | –
COC(=O)c1sc2nc3c(cc2c1N)C(=O)CC(C)(C)C3 | inactive: 3.71% | –
COc1ccccc1Cc1nc2ccccc2nc1SCC(=O)Nc1ccc2c(c1)OCO2 | inconclusive: 14.2% [at 46 µM] | –
O=C(c1ccc(Cl)cc1)c1oc2ccccc2c1CS(=O)c1ccc(Cl)cc1 (centres undefined) | inconclusive: -17.8% | –
CCOC(=O)CSc1nc2ccc(N)cc2s1 | inactive: -3.97% | –
COC(=O)/C(=N/Nc1cccc(C)c1)N1CCCc2ccccc21 | inconclusive: -32.3% | –
Cc1ccc(S(=O)(=O)N2CCCC2C(=O)Nc2nc3ccccc3s2)cc1 (centres undefined) | – | inconclusive: 35.5 µM [fluorescent, single point]
N#Cc1c(/N=C/N2CCOCC2)sc2c1CCCCC2 | inactive: 1.5% | –
O=C(/C=C/c1cccc([N+](=O)[O-])c1)NCCSCc1ccc(Cl)cc1 | – | inconclusive: 11.2 µM [falling, partial curve]
Cc1ccccc1OCCOc1ccccc1C=C(C#N)C#N | inconclusive: -23.3% | –
OCc1nc2ccccc2n1CC(O)Cn1ccc2ccccc21 (centres undefined) | – | inconclusive: 11.2 µM [fluorescent, partial curve]

Structure (SMILES) | ratio change, negative = inhibition | Potency
Cc1c(C)n(CC(O)CN2C(=O)c3ccccc3S2(=O)=O)c2ccccc12 (centres undefined) | inactive: 2.67% | –
COc1ccccc1C1N(c2ccc(Cl)cc2)C(=O)C2CCCN21 (centres undefined) | – | inconclusive: 7.94 µM [inhibitor, partial curve]
O=C(Nc1ccc2c(c1)S(=O)(=O)N=C1CCCCCN12)c1ccccc1Cl | inactive: 5.06% [at 46 µM] | –
Cc1ccc(C)c(S(=O)(=O)Nc2ccc(O)cc2)c1 | inconclusive: -9.03% | –
CCCOC(=O)CCNc1n[nH]c(=O)[nH]c1=O | inconclusive: 21.6% | –
CN(CCc1ccccn1)C(=O)c1nn2c(C(F)(F)F)cc(-c3ccco3)nc2c1Cl | inactive: 28.5% | –
Fc1ccc(COc2ccccc2C(=S)N2CCCC2)cc1 | inconclusive: 3.34% | –
COC(=O)[C@H]1[C@@H](C)N(CCc2cc(OC)c(OC)c(OC)c2)C(=O)N[C@H]1c1ccccc1 | inconclusive: 2.64% [at 9.22 µM] | –
Cc1ccc(C(=O)c2ccccc2C(=O)OCC(=O)NC(=O)NC(C)(C)C)cc1 | inconclusive: -18.1% [at 46 µM] | –
Cc1sc(NC(=O)C2CCCO2)c(C(N)=O)c1C (centres undefined) | inactive: -1.42% | –
Cc1cnc(C(=O)Nc2nnc(SCc3c(Cl)cccc3Cl)s2)cn1 | – | inconclusive: 12.6 µM [fluorescent, partial curve]
O=C(NCC(c1cccs1)N1CCOCC1)c1cc([N+](=O)[O-])ccc1Cl (centres undefined) | inconclusive: -13.4% | –
Cc1ccc(C(=O)Nc2cccc(C(=O)OCc3cc(=O)n4c5c(sc4n3)CCCC5)c2)cc1 | inactive: -22.2% [at 46 µM] | –
Cn1cnc2c(N3CCCCC3)nccc21 | inactive: -12.7% | –
CCOC(=O)Cc1csc(Nc2c(C)n(C)n(-c3ccccc3)c2=O)n1 | inactive: 0.808% | –
COc1ccc2nc(N(CCN(C)C)C(=O)/C=C/c3cccs3)sc2c1 | inconclusive: 5.25% [at 9.22 µM] | –
COc1cc(C2CC(=O)NC3=C2C(=O)CC(C)(C)C3)ccc1O (centres undefined) | inconclusive: -9.32% | –
COc1ccc(NC(=O)C(F)(OC)C(F)(F)F)c(OC)c1 (centres undefined) | inconclusive: 0.654% | –
COc1cc(NC(=O)COc2ccc(-n3ccnc3)cc2)cc(OC)c1 | inconclusive: -21.5% [at 46 µM] | –
C/C(=N/NC(=O)Nc1ccccc1)c1ccc(C)cc1 | inconclusive: 7.33% | –
O=C(Nc1ccc(C(=O)N2CCOCC2)cc1)c1cc(-c2cccnc2)nc2ccc(Cl)cc12 | inconclusive: -36.5% [at 46 µM] | –
CC(=O)OCC1OC(n2ncc(=O)n(Cc3ccccc3)c2=O)C(OC(C)=O)C1OC(C)=O (centres undefined) | inconclusive: -33.7% [at 46 µM] | –
COc1c(Cl)cc(Cl)cc1CNCCO | inconclusive: 13.5% [at 46 µM] | –
Cc1cccc(N2CCN(C(=O)Cn3c(=O)c4cccn4c4ccc(F)cc43)CC2C)c1 (centres undefined) | inactive: 0.0831% [at 46 µM] | –
O=C(NC(=S)N1CCCc2ccccc21)c1ccc(Cl)cc1 | inconclusive: -15.7% | –
O=C(Nc1cc(C(F)(F)F)ccc1Cl)c1cc(S(=O)(=O)NCc2ccccc2)ccc1F | inconclusive: -1.31% [at 46 µM] | –
Fc1ccc(NCc2cn3ccccc3n2)cc1 | inactive: 6.4% | –

As entered above:
Entry for `O=C(Nc1ccc2c(c1)S(=O)(=O)N=C1CCCCCN12)c1ccccc1Cl` under ratio change, negative = inhibition: inactive: 5.06% [at 46 µM]
Entry for `COC(=O)[C@H]1[C@@H](C)N(CCc2cc(OC)c(OC)c(OC)c2)C(=O)N[C@H]1c1ccccc1` under ratio change, negative = inhibition: inconclusive: 2.64% [at 9.22 µM]
